Experimental data published in US12338229B2, “Small molecule stimulators of steroid receptor coactivator-3 and methods of their use as cardioprotective and/or vascular regenerative agents” (BAYLOR COLLEGE OF MEDICINE, priority 2018, dated 2025).

Test system: cardiomyocytes of hearts post-MI
Assay: Total RNA-seq of cardiomyocytes post-MI
Assay type: in vivo, mice
Conditions: 12 weeks post-MI, vs control
Procedure: Isolation of cardiac cells. Mice were placed under the surgical plane of anesthesia before cervical dislocation. The hearts were removed and cells were isolated by Langendorff retrograde perfusion of calcium-free pH 7.4 Tyrodes solution (130 mM NaCl, […], 0.5 mM MgCl, 0.33 mM NaH2PO4, 0.25 mm HEPES, 22 mM glucose) with collagenase, 1 mg/mL for 15 minutes. The hearts were then removed from the apparatus, and finely minced in the same Tyrodes buffer with 15 mg/mL BSA before trituration with a glass pipette. Cardiomyocytes were then pelleted by differential centrifugation, 300 RPM for 3 minutes. […] Then, 0.1 mL of the mixture was removed for the “no stain control” for fluorescence-activated cell sorting (FACS). […] The cells were then pelleted and resuspended in 100 μL 0.4% FBS in PBS, counted, and passed through the 10× Genomics Chromium system.
Total RNA-Seq analysis. Sequencing reads were trimmed using the trimGalore software. Next, the reads were mapped using HISAT against the human genome build UCSC mm10, and quantified using StringTie against the Gencode gene model. […] Differentially expressed genes between tumor and normal samples were determined using a parametric t-test with p-value <0.05 and fold change of 1.25. […]

## CCC1C/C(=C\c2cccnc2)C(=O)/C(=C/c2cccnc2)C1 (centres unmarked) [MCB-613]
  downregulated genes in cardiomyocytes: 107
  upregulated genes in cardiomyocytes: 122
